This series is described as follows: Metabolomics of fetal brain at E14.5. Type of series: in vivo, C57Bl/6J mice. Conditions: E14.5 fetal brain metabolite level; for fold of change ABX/SPF: ANOVA contrast ABX vs SPF; for fold of change GF/ABX: ANOVA contrast GF vs ABX; for fold of change GF/SPF: ANOVA contrast GF vs SPF; for fold of change GF/Sp: ANOVA contrast GF vs Sp; for fold of change Sp/ABX: ANOVA contrast Sp vs ABX; for fold of change Sp/SPF: ANOVA contrast Sp vs SPF.

Consider `CCCCCCCCC=CCCCCCCCC(=O)OCC(COP(=O)([O-])OCC[N+](C)(C)C)OC(=O)CCCCCCCC=CCCCCCCCC` (stereo not drawn) [compound 1889], for which the “fold of change ABX/SPF” value turned out to be 1.01, the “fold of change GF/ABX” value was found to be 0.90, the “fold of change GF/SPF” value stood at 0.91 and the “fold of change GF/Sp” value worked out at 0.95. The “fold of change Sp/ABX” value came to 0.95 and the “fold of change Sp/SPF” value is 0.97.

With `CCCCC/C=C\C/C=C\CCCCCCCC(=O)O[C@H](COC(=O)CCCCCCC/C=C\CCCCCCCC)COP(=O)([O-])OCC[N+](C)(C)C` [compound 1892], the “fold of change ABX/SPF” value stood at 1.11, the “fold of change GF/ABX” value worked out at 1.06, the “fold of change GF/SPF” value turned out to be 1.17 and the “fold of change GF/Sp” value stood at 1.46. Also, the “fold of change Sp/ABX” value is 0.73 and the “fold of change Sp/SPF” value is on record as 0.81.

Consider `CCC=CCC=CCC=CCC=CCC=CCC=CCCC(=O)OC(COC(=O)CCCCCCCC=CCCCCCCCC)COP(=O)([O-])OCC[N+](C)(C)C` (stereo not drawn) [compound 1902], for which the “fold of change ABX/SPF” value is 0.86, the “fold of change GF/ABX” value was 0.77, the “fold of change GF/SPF” value is 0.67 and the “fold of change GF/Sp” value stood at 0.89. For the same molecule, the “fold of change Sp/ABX” value amounted to 0.86 and the “fold of change Sp/SPF” value is listed as 0.75.

Turning to `CCCCC/C=C\C/C=C\CCCCCCCC(=O)OCC(COP(=O)([O-])OCC[N+](C)(C)C)OC(=O)CCCCCCC/C=C\C/C=C\CCCCC` (stereo not drawn) [compound 1903], the “fold of change ABX/SPF” value is listed as 0.93, the “fold of change GF/ABX” value is 1.02, the “fold of change GF/SPF” value worked out at 0.94 and the “fold of change GF/Sp” value is on record as 1.73. In addition, the “fold of change Sp/ABX” value worked out at 0.59 and the “fold of change Sp/SPF” value is on record as 0.54.

On to `CCCCC/C=C\C/C=C\C/C=C\C/C=C\CCCC(=O)OC(COC(=O)CCCCCCC/C=C\C/C=C\CCCCC)COP(=O)([O-])OCC[N+](C)(C)C` (stereo not drawn) [compound 1907], for which the “fold of change ABX/SPF” value came to 1.00, the “fold of change GF/ABX” value came to 1.00, the “fold of change GF/SPF” value came out at 0.99 and the “fold of change GF/Sp” value is 1.28. For the same molecule, the “fold of change Sp/ABX” value is 0.78 and the “fold of change Sp/SPF” value is 0.78.

With `CCCCCCCCCCCCCCCC(=O)OC[C@H](COP(=O)(O)OCCN)OC(=O)CCCCCCCCCCCCCCC` [compound 1945], the “fold of change ABX/SPF” value was determined as 0.90, the “fold of change GF/ABX” value is recorded as 0.95, the “fold of change GF/SPF” value was 0.85 and the “fold of change GF/Sp” value was found to be 0.95. The “fold of change Sp/ABX” value was 1.00 and the “fold of change Sp/SPF” value stood at 0.90.

`CCCCCCCCCCCCCCCCCC(=O)OC(COC(=O)CCCCCCCCCCCCCCC)COP(=O)(O)OCCN` (stereo not drawn) [compound 1948]: the “fold of change ABX/SPF” value was found to be 0.78, the “fold of change GF/ABX” value worked out at 0.98, the “fold of change GF/SPF” value is recorded as 0.76 and the “fold of change GF/Sp” value was 0.89. In addition, the “fold of change Sp/ABX” value was 1.10 and the “fold of change Sp/SPF” value came to 0.86.

Take `CCCCCCCC/C=C\CCCCCCCC(=O)O[C@H](COC(=O)CCCCCCCCCCCCCCC)COP(=O)(O)OCCN` [compound 1949]: the “fold of change ABX/SPF” value was found to be 0.91, the “fold of change GF/ABX” value is given as 0.90, the “fold of change GF/SPF” value is given as 0.82 and the “fold of change GF/Sp” value turned out to be 0.94. For the same molecule, the “fold of change Sp/ABX” value turned out to be 0.97 and the “fold of change Sp/SPF” value came out at 0.88.

For `CCCCC/C=C\C/C=C\CCCCCCCC(=O)OC(COC(=O)CCCCCCCCCCCCCCC)COP(=O)(O)OCCN` (stereo not drawn) [compound 1950], the “fold of change ABX/SPF” value is on record as 1.10, the “fold of change GF/ABX” value was found to be 0.90, the “fold of change GF/SPF” value is 0.99 and the “fold of change GF/Sp” value came out at 1.12. The “fold of change Sp/ABX” value is 0.81 and the “fold of change Sp/SPF” value came out at 0.89.

On to `CCCCCC=CCC=CCC=CCC=CCCCC(=O)OC(COC(=O)CCCCCCCCCCCCCCC)COP(=O)(O)OCCN` (stereo not drawn) [compound 1953], for which the “fold of change ABX/SPF” value is 0.92, the “fold of change GF/ABX” value amounted to 0.93, the “fold of change GF/SPF” value was 0.86 and the “fold of change GF/Sp” value is 1.03. Also, the “fold of change Sp/ABX” value is 0.91 and the “fold of change Sp/SPF” value came out at 0.83.

Turning to `CC/C=C\C/C=C\C/C=C\C/C=C\C/C=C\C/C=C\CCC(=O)OC(COC(=O)CCCCCCCCCCCCCCC)COP(=O)(O)OCCN` (stereo not drawn) [compound 1955], the “fold of change ABX/SPF” value is recorded as 0.94, the “fold of change GF/ABX” value was 0.79, the “fold of change GF/SPF” value came to 0.74 and the “fold of change GF/Sp” value is reported as 0.88. Besides, the “fold of change Sp/ABX” value worked out at 0.90 and the “fold of change Sp/SPF” value turned out to be 0.85.

Consider `CCCCCCCC/C=C\CCCCCCCC(=O)O[C@H](COC(=O)CCCCCCCCCCCCCCCCC)COP(=O)(O)OCCN` [compound 1962], for which the “fold of change ABX/SPF” value came to 0.85, the “fold of change GF/ABX” value is 0.89, the “fold of change GF/SPF” value was found to be 0.75 and the “fold of change GF/Sp” value was determined as 0.89. Moreover, the “fold of change Sp/ABX” value turned out to be 0.99 and the “fold of change Sp/SPF” value stood at 0.84.

Turning to `CCCCCC=CCC=CCC=CCC=CCCCC(=O)OC(COC(=O)CCCCCCCCCCCCCCCCC)COP(=O)(O)OCCN` (stereo not drawn) [compound 1970], the “fold of change ABX/SPF” value is given as 0.90, the “fold of change GF/ABX” value was found to be 0.90, the “fold of change GF/SPF” value was found to be 0.81 and the “fold of change GF/Sp” value was found to be 0.94. Besides, the “fold of change Sp/ABX” value was determined as 0.95 and the “fold of change Sp/SPF” value amounted to 0.85.

Consider `CC/C=C\C/C=C\C/C=C\C/C=C\C/C=C\C/C=C\CCC(=O)O[C@H](COC(=O)CCCCCCCCCCCCCCCCC)COP(=O)(O)OCCN` [compound 1974], for which the “fold of change ABX/SPF” value turned out to be 0.88, the “fold of change GF/ABX” value is recorded as 0.79, the “fold of change GF/SPF” value was 0.69 and the “fold of change GF/Sp” value was determined as 0.87. The “fold of change Sp/ABX” value is 0.90 and the “fold of change Sp/SPF” value is listed as 0.80.

Turning to `CCCCCCCCC=CCCCCCCCC(=O)OCC(COP(=O)(O)OCCN)OC(=O)CCCCCCCC=CCCCCCCCC` (stereo not drawn) [compound 1975], the “fold of change ABX/SPF” value was found to be 1.05, the “fold of change GF/ABX” value is listed as 0.89, the “fold of change GF/SPF” value is 0.94 and the “fold of change GF/Sp” value was 1.05. In addition, the “fold of change Sp/ABX” value worked out at 0.85 and the “fold of change Sp/SPF” value worked out at 0.89.

`CCCCC/C=C\C/C=C\CCCCCCCC(=O)O[C@H](COC(=O)CCCCCCC/C=C\CCCCCCCC)COP(=O)(O)OCCN` [compound 1976]: the “fold of change ABX/SPF” value came out at 1.18, the “fold of change GF/ABX” value came to 0.90, the “fold of change GF/SPF” value is 1.06 and the “fold of change GF/Sp” value is reported as 1.38. The “fold of change Sp/ABX” value was 0.66 and the “fold of change Sp/SPF” value was 0.77.

With `CCCCC/C=C\C/C=C\C/C=C\C/C=C\CCCC(=O)O[C@H](COC(=O)CCCCCCC/C=C\CCCCCCCC)COP(=O)(O)OCCN` [compound 1979], the “fold of change ABX/SPF” value is listed as 1.06, the “fold of change GF/ABX” value was found to be 0.90, the “fold of change GF/SPF” value turned out to be 0.95 and the “fold of change GF/Sp” value is on record as 1.09. For the same molecule, the “fold of change Sp/ABX” value is given as 0.82 and the “fold of change Sp/SPF” value came out at 0.87.
